Data on ten molecules can be found in publication PMC3061866.

Experiment in all cases: affinity purification with mass spectrometry; anti-FLAG immunoprecipitation from extracts of S. pombe strains expressing Mis17-, Mis6- or Mis12-FLAG under the native promoter; extraction buffer 25 mM HEPES-KOH pH 7.5, 200 mM NaCl, 10% glycerol, 0.1% NP-40, 1 mM PMSF; 4-12% SDS-PAGE, gel slices, in-gel trypsin digestion, LC/MS/MS
One assay deals with T1, Mis17-FLAG (S. pombe) (UniProt O94643).
T1 sequence: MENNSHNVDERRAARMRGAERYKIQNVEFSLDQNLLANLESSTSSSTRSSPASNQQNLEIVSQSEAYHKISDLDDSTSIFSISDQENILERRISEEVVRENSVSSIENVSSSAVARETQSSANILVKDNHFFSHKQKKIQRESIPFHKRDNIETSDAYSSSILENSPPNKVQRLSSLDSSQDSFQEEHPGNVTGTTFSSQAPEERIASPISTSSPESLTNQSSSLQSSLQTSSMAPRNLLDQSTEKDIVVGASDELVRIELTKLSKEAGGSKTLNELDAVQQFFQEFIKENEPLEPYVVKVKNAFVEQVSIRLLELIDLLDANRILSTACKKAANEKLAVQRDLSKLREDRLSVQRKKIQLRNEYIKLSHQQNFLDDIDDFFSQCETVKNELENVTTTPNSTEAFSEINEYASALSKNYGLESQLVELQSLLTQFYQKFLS

For the next assay, the target named is T2, Mis12-FLAG (S. pombe) (UniProt Q9Y738).
T2 sequence: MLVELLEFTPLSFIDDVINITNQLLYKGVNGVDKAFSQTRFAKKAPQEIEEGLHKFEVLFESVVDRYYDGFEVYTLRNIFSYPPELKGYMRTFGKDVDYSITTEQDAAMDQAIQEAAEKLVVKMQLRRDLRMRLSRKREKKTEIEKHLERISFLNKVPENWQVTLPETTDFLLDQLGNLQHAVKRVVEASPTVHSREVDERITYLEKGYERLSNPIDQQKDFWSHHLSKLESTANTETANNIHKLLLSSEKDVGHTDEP

Another assay deals with T3, Mis6-FLAG (S. pombe) (UniProt P87227).
T3 sequence: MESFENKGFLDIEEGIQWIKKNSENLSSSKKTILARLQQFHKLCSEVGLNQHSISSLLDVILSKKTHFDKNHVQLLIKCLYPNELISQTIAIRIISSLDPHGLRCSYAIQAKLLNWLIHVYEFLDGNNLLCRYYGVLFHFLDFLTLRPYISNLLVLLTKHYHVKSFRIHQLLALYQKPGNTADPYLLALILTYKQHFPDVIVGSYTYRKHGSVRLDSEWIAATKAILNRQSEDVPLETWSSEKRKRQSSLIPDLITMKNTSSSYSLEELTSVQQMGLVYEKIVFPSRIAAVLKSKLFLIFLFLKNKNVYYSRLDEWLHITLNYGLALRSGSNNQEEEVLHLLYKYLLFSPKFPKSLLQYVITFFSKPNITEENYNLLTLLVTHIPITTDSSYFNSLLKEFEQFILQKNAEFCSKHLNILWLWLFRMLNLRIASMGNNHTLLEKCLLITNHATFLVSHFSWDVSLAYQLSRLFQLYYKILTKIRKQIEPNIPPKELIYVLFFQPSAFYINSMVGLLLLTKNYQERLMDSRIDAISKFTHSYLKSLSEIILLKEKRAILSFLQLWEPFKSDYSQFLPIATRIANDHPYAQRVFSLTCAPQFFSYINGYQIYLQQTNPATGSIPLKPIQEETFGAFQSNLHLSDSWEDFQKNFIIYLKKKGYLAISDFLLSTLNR

These are yes or no findings as the source states them, for the method shown. Binding seen in cells or lysates may run through a third protein. A yes stands for co-enrichment or nearness to the bait. Other partners may have been found. A no says only that the protein was not detected with the bait. Tags and fused reporters may be left off the sequences shown.

B1: Mis6 (protein, UniProt P87227 1-672)
chain: MESFENKGFLDIEEGIQWIKKNSENLSSSKKTILARLQQFHKLCSEVGLNQHSISSLLDVILSKKTHFDKNHVQLLIKCLYPNELISQTIAIRIISSLDPHGLRCSYAIQAKLLNWLIHVYEFLDGNNLLCRYYGVLFHFLDFLTLRPYISNLLVLLTKHYHVKSFRIHQLLALYQKPGNTADPYLLALILTYKQHFPDVIVGSYTYRKHGSVRLDSEWIAATKAILNRQSEDVPLETWSSEKRKRQSSLIPDLITMKNTSSSYSLEELTSVQQMGLVYEKIVFPSRIAAVLKSKLFLIFLFLKNKNVYYSRLDEWLHITLNYGLALRSGSNNQEEEVLHLLYKYLLFSPKFPKSLLQYVITFFSKPNITEENYNLLTLLVTHIPITTDSSYFNSLLKEFEQFILQKNAEFCSKHLNILWLWLFRMLNLRIASMGNNHTLLEKCLLITNHATFLVSHFSWDVSLAYQLSRLFQLYYKILTKIRKQIEPNIPPKELIYVLFFQPSAFYINSMVGLLLLTKNYQERLMDSRIDAISKFTHSYLKSLSEIILLKEKRAILSFLQLWEPFKSDYSQFLPIATRIANDHPYAQRVFSLTCAPQFFSYINGYQIYLQQTNPATGSIPLKPIQEETFGAFQSNLHLSDSWEDFQKNFIIYLKKKGYLAISDFLLSTLNR
As for B1, the figures for the binding entry in the assay with Mis17-FLAG (S. pombe) and with Mis12-FLAG (S. pombe) were “binds” and “no binding”, respectively.

B2: Mis17 (protein, UniProt O94643 1-441)
chain: MENNSHNVDERRAARMRGAERYKIQNVEFSLDQNLLANLESSTSSSTRSSPASNQQNLEIVSQSEAYHKISDLDDSTSIFSISDQENILERRISEEVVRENSVSSIENVSSSAVARETQSSANILVKDNHFFSHKQKKIQRESIPFHKRDNIETSDAYSSSILENSPPNKVQRLSSLDSSQDSFQEEHPGNVTGTTFSSQAPEERIASPISTSSPESLTNQSSSLQSSLQTSSMAPRNLLDQSTEKDIVVGASDELVRIELTKLSKEAGGSKTLNELDAVQQFFQEFIKENEPLEPYVVKVKNAFVEQVSIRLLELIDLLDANRILSTACKKAANEKLAVQRDLSKLREDRLSVQRKKIQLRNEYIKLSHQQNFLDDIDDFFSQCETVKNELENVTTTPNSTEAFSEINEYASALSKNYGLESQLVELQSLLTQFYQKFLS
As for B2, the binding entry with Mis6-FLAG (S. pombe) is “binds”; with Mis12-FLAG (S. pombe) it was “no binding”.

B3: Sim4 (protein, UniProt O94494 1-277)
chain: MNSENASLFRNILNDTENLVQPLTQDESRLALFESLVQSDQLLVEKIEKWEKKVSKFTENSKSEKRKLQLELFQEIIDLKKCIAFKPIIGKNAIDNNISDLKKNLHSNKKLEAVLKEELHQIKKFSSDLQSLKSSMGERQKQQAAMSRRGKKSIIHSAIIQEKERYEKESQELFTFLDGFLDEHAPSLLEGAQASIDKNRPGKNQPSLNFENISKKDLTEEFKQVIENLMNNSIIPGSPYIEVKNERIVSFLVLASLCTVDPQDPSKVKLIPFSDEI
As to B3, the binding entry is listed as “binds” with Mis17-FLAG (S. pombe), “binds” with Mis6-FLAG (S. pombe) and “no binding” in the assay with Mis12-FLAG (S. pombe).

B4: Dad1 (protein, UniProt P87297 1-90)
chain: MSSENMDITENIQNEQNKDFDDIDFERRRRLLTLQISKSMNEVVNLMSALNKNLESINGVGKEFENVASLWKEFQNSVLQKKDREMLDAP
Regarding B4, the figures for the binding result with Mis17-FLAG (S. pombe) and in the assay with Mis6-FLAG (S. pombe) were “binds weakly” and “binds”, respectively.

B5: Cnl2 (protein, UniProt O13952 1-188)
chain: MNMEEQILNDYLLSQGRLQSIISLEQWRQLFPQRYREDPLIERLYEYCTQQRQKRLAKLRANIHLESQVIGKSRIDRMLATNVEKLQTVSHASTLHDVEEFYTSHSAKPLDISEINERLSEAVQSAYTKLNEEKERCTQLTLKMNSQIASLSDFQWSKEPNVDESIHLVESLIESLEKAAPSAIEELD
As to B5, the values for the binding entry with Mis17-FLAG (S. pombe), with Mis6-FLAG (S. pombe) and in the assay with Mis12-FLAG (S. pombe) were “binds”, “binds” and “no binding”, respectively.

B6: Fta7 (protein, UniProt O74844 1-244)
chain: MEMKRRVRAVRRDQIQKRWRPLEDKQRQEIIIIFRTCSRLVLNTIKSETRKSLAEEWFMNILLKIEAPLRNLPVPRKRKESILFSQLLSSNMQLEQQLYSDLDHINVLQQELKVETARLENEQKSYEEMKQNMAINNSRLADLKSKLHPYLKKGLKISHDNFSDSNDFSFQKKLNTEDSNTSKTSTLDMYKEKLKPFTKTMQIHANKTVQLSQTIQKATLLLQRLNNTKNIGLNKSSKLKIKNI
In the case of B6, the binding entry in the assay with Mis17-FLAG (S. pombe) is listed as “binds”; with Mis6-FLAG (S. pombe), “binds”; with Mis12-FLAG (S. pombe), “no binding”.

B7: Fta1 (protein, UniProt O36024 1-280)
chain: MTLRDHHFYNVTYTAYRLSPLFGFEYSNLTEIGKKLTRFLRYGTDRTGYFTNSTRFADLIIEKATFTEFGNTSSFPKFLKLDISYETSSDLEVKRKGQMFFFESFRKFSHAEADRTRLSLEGNSVFFSLALVRMDGALWMAVEQFLQQEFDTQILPCLIAPEILLEFLKIWQNHVNSQTALPLELTWTTGNPNLSSVTISIRPEDLKKIFRSSSFFYPILMEHIKRCTSLDLTNSVFSLSKVNTDCAILTSSGKLKIFSKAQNIVFDVLLALEPMQLPEY
Take B7: the binding entry is recorded as “binds” with Mis17-FLAG (S. pombe), “binds” with Mis6-FLAG (S. pombe) and “no binding” with Mis12-FLAG (S. pombe).

B8: Mis12 (protein, UniProt Q9Y738 1-259)
chain: MLVELLEFTPLSFIDDVINITNQLLYKGVNGVDKAFSQTRFAKKAPQEIEEGLHKFEVLFESVVDRYYDGFEVYTLRNIFSYPPELKGYMRTFGKDVDYSITTEQDAAMDQAIQEAAEKLVVKMQLRRDLRMRLSRKREKKTEIEKHLERISFLNKVPENWQVTLPETTDFLLDQLGNLQHAVKRVVEASPTVHSREVDERITYLEKGYERLSNPIDQQKDFWSHHLSKLESTANTETANNIHKLLLSSEKDVGHTDEP
On to B8, for which the binding result with Mis17-FLAG (S. pombe) and with Mis6-FLAG (S. pombe) was “no binding” throughout.

B9: Mis15 (protein, UniProt Q9C0W0 1-409)
chain: MRTELSSNIRIKHDKKIQKLLNRFPRDFLVKLCVEWIQKQTYPPNAKDINLEDMLDDEEWNPEAFYKNVPKSMLKRSIIHRMLVYDWPNGFYLGQIAQLEILALAHGFVSMRWTASKVHHSAEKTVLPNPLVFLELLKSELESIFVYHTYISRHETLPITFIRLVLWDSKRPTALHTYPSSKQIFYLGLMDDSDVLLHNIFLRNDVCHSLFLQCLSRLLYRLKAGSALRPIDLVSKNLTTFCTNVGVNKEANALGAWQIYAKNLVDRSPLDTRPILSDDNSSLIADSTQNCEKHREMAIQRRFGDTHSQVLDKLLITLDHDYIEKSTEKDKVLEENVESYNPTEQRPLVVMQLRGQHILEGLKDICRQDALDPFTMPSYLTGETGLSILYVRDGLVLQRQESLGQQEIN
On to B9, for which the binding entry with Mis17-FLAG (S. pombe) is recorded as “binds”; with Mis6-FLAG (S. pombe), “binds”; with Mis12-FLAG (S. pombe), “no binding”.

B10: Mal2 (protein, UniProt Q10290 1-303)
chain: MDDEEGNATLIDEISVLEARRDVLLDELKSLDNATLSDLVQKPELSKNLSVNNEFLKETPLNQPALHYDRLSGISFFQPNDPEELSRKTLLVKNKKTGAIETAPSIPLLGVRFDIMLNPVNIGFTNLSENPISSASGMDEELEGGNRFDVPYYIIFRVFHDSFALYKYTIPSFLNIQEWADEYLTGKNPERFRIFLWKVDKLLTAYICRKNALLQINKSLTIDGTNISANLSCTHLVIQIPKVIQATLVCSSESTRVVKSRIYQYSDENWKRDHRLELSLLDNKRWVNILVSHLTAPESHASL
On to B10, for which the binding result is listed as “binds” with Mis17-FLAG (S. pombe), “binds” with Mis6-FLAG (S. pombe) and “no binding” with Mis12-FLAG (S. pombe).
